# Reference: the supplement of paper PMC8728848
# Some of the results follow.
# Experiments:
# Experiment in all cases: glycan array binding signal (z-score within array); higher = stronger binding
# Conditions in all cases: glycan notation: IUPAC condensed, linker removed
# [1] = biological target: Gal(b1-4)GlcNAc(b1-6)Gal(b1-4)GlcNAc
# Outline: (§1)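 Glycan array binding is given as a within-array Z-score, which can be read as non-binding when negative. The arrays, 3228 of them, came from the Consortium for Functional Glycomics database and were retained only where the protein sequence was available. Z-scores were averaged across arrays of the same protein sequence at different concentrations or buffers and across linkers.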
# [2] = biological target: Gal(b1-4)GlcNAc(b1-6)GalNAc
# Outline: as §1
# [3] = biological target: Gal(b1-4)GlcNAc(b1-6)[Gal(b1-3)]GalNAc
# Outline: as §1
# [4] = biological target: Gal(b1-4)GlcNAc(b1-6)[Gal(b1-4)GlcNAc(b1-3)]GalNAc
# Outline: as §1
# [5] = biological target: Gal(b1-4)GlcNAc6P
# Outline: as §1
# [6] = biological target: Gal(b1-6)Gal
# Outline: as §1
# [7] = biological target: Gal3S(b1-3)GalNAc
# Outline: as §1
# [8] = biological target: Gal3S(b1-3)GlcNAc
# Outline: as §1
# [9] = biological target: Gal3S(b1-3)[Fuc(a1-4)]GlcNAc
# Outline: as §1
# [10] = biological target: Gal3S(b1-4)Glc
# Outline: as §1
# [11] = biological target: Gal3S(b1-4)Glc6S
# Outline: as §1
# [12] = biological target: Gal3S(b1-4)GlcNAc
# Outline: as §1
# [13] = biological target: Gal3S(b1-4)[Fuc(a1-3)]Glc6S
# Outline: as §1
# [14] = biological target: Gal3S(b1-4)[Fuc(a1-3)]GlcNAc
# Outline: as §1
# [15] = biological target: Gal3S(b1-4)[Fuc(a1-3)]GlcNAc6S
# Outline: as §1
# [16] = biological target: Gal3S4S(b1-4)GlcNAc
# Outline: as §1
# [17] = biological target: Gal3S6S(b1-4)GlcNAc
# Outline: as §1
# [18] = biological target: Gal3S6S(b1-4)GlcNAc6S
# Outline: as §1
# [19] = biological target: Gal4S(b1-4)GlcNAc
# Outline: as §1
# [20] = biological target: Gal4S6S(b1-4)GlcNAc
# Outline: as §1
# [21] = biological target: Gal6P(b1-4)GlcNAc
# Outline: as §1
# [22] = biological target: Gal6S(b1-3)GlcNAc
# Outline: as §1
# [23] = biological target: Gal6S(b1-3)GlcNAc6S
# Outline: as §1
binder,measurement,setting,value
"Ovorubin (Pomacea canaliculata), J7I2T6 (protein) MFVATSLLLAIATLVVRASPHNYLIMDIEPPKSVSERDILNLLSPLQVKHSFRVTGSTRLLIVIRLDAQSYEKLDEITVPGKVEVIPAVNMADTMERCGVSWPRVELTDDNVTLFESESTLTDVTKEQLKAMLIGYGEHMSGLLQAHRFEYYQAAGATPHRHFVFVNSVPDEIEVFGREGVDIWGGPGEFVVKPQYVTRI",glycan array binding signal (z-score),[1],0.458
same,glycan array binding signal (z-score),[2],0.534
same,glycan array binding signal (z-score),[3],0.113
same,glycan array binding signal (z-score),[4],1.29
same,glycan array binding signal (z-score),[5],-0.461
same,glycan array binding signal (z-score),[6],-0.193
same,glycan array binding signal (z-score),[7],0.802
same,glycan array binding signal (z-score),[8],0.578
same,glycan array binding signal (z-score),[9],-0.587
same,glycan array binding signal (z-score),[10],-0.766
same,glycan array binding signal (z-score),[11],0.882
same,glycan array binding signal (z-score),[12],-0.423
same,glycan array binding signal (z-score),[13],3.72
same,glycan array binding signal (z-score),[14],0.624
same,glycan array binding signal (z-score),[15],1.26
same,glycan array binding signal (z-score),[16],9.33
same,glycan array binding signal (z-score),[17],4.31
same,glycan array binding signal (z-score),[18],0.237
same,glycan array binding signal (z-score),[19],0.112
same,glycan array binding signal (z-score),[20],2.17
same,glycan array binding signal (z-score),[21],-0.405
same,glycan array binding signal (z-score),[22],-0.856
same,glycan array binding signal (z-score),[23],1.01

# Reprinted from the entries so far for reference:
binder,measurement,setting,value
"Ovorubin (Pomacea canaliculata), J7I2T6 (protein) MFVATSLLLAIATLVVRASPHNYLIMDIEPPKSVSERDILNLLSPLQVKHSFRVTGSTRLLIVIRLDAQSYEKLDEITVPGKVEVIPAVNMADTMERCGVSWPRVELTDDNVTLFESESTLTDVTKEQLKAMLIGYGEHMSGLLQAHRFEYYQAAGATPHRHFVFVNSVPDEIEVFGREGVDIWGGPGEFVVKPQYVTRI",glycan array binding signal (z-score),[17],4.31
same,glycan array binding signal (z-score),[18],0.237
